Experimental findings from publication PMC5992170, “Modular ssDNA binding and inhibition of telomerase activity by designer PPR proteins” are described below.

The subject of data set [1] is T1, cPPR-Telo1 (synthetic construct).
T1 sequence (looked up, limits assumed): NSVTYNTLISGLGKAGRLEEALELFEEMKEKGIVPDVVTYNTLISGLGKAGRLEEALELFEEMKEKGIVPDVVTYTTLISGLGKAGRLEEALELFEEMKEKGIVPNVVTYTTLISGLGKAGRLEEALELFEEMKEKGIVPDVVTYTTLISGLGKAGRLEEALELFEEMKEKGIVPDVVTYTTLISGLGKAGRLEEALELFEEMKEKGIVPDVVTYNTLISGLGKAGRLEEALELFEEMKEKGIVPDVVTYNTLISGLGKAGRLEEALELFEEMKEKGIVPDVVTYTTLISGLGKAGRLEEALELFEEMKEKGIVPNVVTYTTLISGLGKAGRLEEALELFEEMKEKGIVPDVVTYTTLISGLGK
Description: EMSA. The settings on record: off-target control; EMSA: 10 mM HEPES pH 8.0, 1 mM EDTA, 50 mM KCl, 2 mM DTT, 0.1 mg/ml BSA, 0.02% Tween-20, room temperature 30 min, 0.83 uM probe; recombinant protein; protein details: GST-His (pETM30); label: 5'-fluorescein via hexaethyleneglycol spacer; single-stranded DNA. (Mobility shift assays separate free from complexed probe on a gel.)

Data set [2] has the same test system. In words: competition with a labelled probe. The settings on record: up to 100:1 over telomeric probe; EMSA: 10 mM HEPES pH 8.0, 1 mM EDTA, 50 mM KCl, 2 mM DTT, 0.1 mg/ml BSA, 0.02% Tween-20, room temperature 30 min, 0.83 uM probe; recombinant protein; protein details: GST-His (pETM30); single-stranded DNA.

The exact form of at least one protein or probe is not confirmed. No signal at the amounts used counts as a negative. At least one verdict rests on a figure or table, not on a statement of the authors. Where a protein sequence is shown, tags need not be part of it.

As to CCCCCCCCCC [Poly(C)], in data set [1], the binding result is “no binding”. As for “CTAGACCTGTCATCA [non-specific competitor ssDNA]”, the binding result in data set [2] is recorded as “no binding”.
